In the supplement of paper PMC12819154, “High-throughput peptide-centric local stability assay extends protein–ligand identification to membrane proteins, tissues and bacteria” (Nature Structural & Molecular Biology, 2025):
Some of the results follow. Most entries show no effect beyond the scatter of the controls.

Protein sequences, listed by entry. Tags and fused reporters are not part of them. Lines headed by an entry give the natural chain unless they say otherwise; changes in a name come on top.
UniProt Q5XKN4: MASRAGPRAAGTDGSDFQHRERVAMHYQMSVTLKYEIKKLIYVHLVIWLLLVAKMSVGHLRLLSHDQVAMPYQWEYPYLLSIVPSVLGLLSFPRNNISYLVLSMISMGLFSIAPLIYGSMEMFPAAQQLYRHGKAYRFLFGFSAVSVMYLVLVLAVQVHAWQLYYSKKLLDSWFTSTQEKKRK
UniProt Q61503: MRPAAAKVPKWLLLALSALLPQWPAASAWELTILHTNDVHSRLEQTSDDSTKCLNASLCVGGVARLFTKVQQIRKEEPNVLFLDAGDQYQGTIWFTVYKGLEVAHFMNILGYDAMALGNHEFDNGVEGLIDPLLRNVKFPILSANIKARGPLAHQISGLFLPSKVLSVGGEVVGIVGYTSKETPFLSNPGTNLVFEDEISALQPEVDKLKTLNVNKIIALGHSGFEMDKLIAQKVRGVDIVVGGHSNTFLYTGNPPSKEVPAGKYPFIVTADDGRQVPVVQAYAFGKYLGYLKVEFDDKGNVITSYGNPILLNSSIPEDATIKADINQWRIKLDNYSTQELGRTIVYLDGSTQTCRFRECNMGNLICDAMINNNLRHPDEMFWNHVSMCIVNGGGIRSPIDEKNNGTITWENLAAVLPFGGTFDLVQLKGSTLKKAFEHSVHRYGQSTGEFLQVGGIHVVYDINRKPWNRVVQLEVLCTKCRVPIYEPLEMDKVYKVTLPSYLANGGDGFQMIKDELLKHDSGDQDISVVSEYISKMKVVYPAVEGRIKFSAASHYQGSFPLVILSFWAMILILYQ
UniProt Q61730, whole entry: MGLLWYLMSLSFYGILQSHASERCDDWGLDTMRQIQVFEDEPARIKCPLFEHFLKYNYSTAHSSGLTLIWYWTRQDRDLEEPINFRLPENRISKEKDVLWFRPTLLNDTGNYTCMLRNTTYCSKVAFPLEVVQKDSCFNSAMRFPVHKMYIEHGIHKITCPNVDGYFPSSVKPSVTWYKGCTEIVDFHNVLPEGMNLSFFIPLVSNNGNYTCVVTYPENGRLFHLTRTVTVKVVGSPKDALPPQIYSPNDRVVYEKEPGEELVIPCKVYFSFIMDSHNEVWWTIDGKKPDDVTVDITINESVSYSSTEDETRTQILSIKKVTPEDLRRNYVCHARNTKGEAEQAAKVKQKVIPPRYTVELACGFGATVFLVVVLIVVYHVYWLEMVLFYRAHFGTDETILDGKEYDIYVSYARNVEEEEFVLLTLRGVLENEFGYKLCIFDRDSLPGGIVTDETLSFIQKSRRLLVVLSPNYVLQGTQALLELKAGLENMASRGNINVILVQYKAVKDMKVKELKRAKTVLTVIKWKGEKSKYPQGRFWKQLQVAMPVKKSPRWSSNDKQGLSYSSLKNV
UniProt Q63880: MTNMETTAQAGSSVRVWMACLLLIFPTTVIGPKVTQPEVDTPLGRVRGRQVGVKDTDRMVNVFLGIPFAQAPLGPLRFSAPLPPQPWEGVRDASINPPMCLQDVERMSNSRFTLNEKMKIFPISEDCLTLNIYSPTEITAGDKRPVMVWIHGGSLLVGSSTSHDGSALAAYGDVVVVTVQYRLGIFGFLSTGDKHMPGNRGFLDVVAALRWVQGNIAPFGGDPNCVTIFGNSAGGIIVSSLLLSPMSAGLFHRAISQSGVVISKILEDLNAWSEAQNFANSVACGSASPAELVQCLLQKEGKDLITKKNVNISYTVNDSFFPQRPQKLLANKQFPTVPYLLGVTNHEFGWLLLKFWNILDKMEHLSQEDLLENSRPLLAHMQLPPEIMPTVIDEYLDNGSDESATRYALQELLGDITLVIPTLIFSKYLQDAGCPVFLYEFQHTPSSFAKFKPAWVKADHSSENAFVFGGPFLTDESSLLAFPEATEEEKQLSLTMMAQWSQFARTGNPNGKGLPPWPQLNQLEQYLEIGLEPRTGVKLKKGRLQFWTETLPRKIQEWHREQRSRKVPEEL
UniProt Q61334: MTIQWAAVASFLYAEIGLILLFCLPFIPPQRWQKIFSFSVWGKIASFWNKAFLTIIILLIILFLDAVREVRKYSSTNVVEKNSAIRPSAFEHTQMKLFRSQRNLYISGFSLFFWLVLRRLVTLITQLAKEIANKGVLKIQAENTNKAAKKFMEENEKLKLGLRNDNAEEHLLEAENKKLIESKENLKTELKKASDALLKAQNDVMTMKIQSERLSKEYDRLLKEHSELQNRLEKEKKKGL
UniProt Q64446: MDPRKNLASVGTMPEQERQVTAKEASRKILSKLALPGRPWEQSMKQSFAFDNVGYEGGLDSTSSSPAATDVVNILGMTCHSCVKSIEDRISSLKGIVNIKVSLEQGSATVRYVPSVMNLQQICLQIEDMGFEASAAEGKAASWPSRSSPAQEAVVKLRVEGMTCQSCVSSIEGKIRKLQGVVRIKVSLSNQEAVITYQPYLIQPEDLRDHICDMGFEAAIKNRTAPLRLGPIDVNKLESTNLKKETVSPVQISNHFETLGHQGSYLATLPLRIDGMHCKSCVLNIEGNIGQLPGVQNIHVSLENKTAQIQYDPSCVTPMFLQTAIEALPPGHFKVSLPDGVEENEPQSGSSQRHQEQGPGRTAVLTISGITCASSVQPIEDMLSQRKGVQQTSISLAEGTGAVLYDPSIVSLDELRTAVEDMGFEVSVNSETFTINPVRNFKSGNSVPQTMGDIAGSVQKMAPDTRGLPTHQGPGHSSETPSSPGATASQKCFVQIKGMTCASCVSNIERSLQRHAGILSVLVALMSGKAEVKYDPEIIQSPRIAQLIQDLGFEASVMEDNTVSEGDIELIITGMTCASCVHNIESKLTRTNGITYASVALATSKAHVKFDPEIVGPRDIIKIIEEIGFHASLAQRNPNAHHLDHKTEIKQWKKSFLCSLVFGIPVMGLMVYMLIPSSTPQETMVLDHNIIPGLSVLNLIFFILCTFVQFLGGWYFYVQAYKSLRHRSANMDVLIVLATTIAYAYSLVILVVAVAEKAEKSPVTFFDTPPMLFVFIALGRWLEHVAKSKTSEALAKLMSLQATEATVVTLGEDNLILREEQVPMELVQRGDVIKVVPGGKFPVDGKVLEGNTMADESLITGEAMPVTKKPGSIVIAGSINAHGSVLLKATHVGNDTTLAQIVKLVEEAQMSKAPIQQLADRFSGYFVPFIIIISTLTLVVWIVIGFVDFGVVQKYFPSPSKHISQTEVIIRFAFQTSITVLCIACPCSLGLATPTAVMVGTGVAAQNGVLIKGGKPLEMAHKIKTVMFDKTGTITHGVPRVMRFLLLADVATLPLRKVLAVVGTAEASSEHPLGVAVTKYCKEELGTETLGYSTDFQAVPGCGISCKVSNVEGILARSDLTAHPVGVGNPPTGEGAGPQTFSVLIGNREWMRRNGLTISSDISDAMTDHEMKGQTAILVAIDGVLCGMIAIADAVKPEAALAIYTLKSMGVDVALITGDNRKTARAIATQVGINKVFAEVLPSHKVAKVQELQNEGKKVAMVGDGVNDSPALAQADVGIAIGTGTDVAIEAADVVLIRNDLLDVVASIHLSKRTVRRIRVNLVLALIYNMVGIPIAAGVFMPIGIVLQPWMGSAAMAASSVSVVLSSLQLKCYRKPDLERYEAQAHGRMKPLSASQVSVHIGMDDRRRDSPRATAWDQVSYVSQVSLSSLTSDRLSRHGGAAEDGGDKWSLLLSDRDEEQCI
UniProt Q5U3K5: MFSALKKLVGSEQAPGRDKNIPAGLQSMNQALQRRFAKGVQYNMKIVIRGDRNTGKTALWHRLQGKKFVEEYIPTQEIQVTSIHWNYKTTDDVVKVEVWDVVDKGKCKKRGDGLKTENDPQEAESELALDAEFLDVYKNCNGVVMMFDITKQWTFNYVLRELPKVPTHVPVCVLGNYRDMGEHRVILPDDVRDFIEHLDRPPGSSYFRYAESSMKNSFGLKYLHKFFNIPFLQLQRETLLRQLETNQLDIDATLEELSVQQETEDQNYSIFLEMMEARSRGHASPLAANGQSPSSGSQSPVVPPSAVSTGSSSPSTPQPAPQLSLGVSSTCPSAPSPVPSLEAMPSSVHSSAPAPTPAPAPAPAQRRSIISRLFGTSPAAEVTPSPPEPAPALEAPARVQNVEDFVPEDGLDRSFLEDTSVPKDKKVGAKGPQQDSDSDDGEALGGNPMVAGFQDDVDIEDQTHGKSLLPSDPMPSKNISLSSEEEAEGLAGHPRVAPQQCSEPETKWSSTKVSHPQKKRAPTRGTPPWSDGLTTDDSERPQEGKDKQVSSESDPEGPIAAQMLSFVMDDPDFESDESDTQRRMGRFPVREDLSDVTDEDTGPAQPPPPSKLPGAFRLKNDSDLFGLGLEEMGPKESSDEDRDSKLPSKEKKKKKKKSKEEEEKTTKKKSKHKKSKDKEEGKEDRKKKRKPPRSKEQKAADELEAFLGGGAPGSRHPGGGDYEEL
UniProt Q62426: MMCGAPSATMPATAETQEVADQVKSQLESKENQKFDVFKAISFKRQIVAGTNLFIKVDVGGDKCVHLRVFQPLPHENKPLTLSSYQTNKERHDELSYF
UniProt Q64373, whole entry: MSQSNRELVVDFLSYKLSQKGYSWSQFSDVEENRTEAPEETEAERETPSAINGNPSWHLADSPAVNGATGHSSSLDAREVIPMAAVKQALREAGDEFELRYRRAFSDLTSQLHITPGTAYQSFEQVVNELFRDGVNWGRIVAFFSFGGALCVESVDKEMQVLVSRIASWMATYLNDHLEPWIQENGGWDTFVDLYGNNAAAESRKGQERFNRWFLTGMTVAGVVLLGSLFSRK
UniProt Q62313: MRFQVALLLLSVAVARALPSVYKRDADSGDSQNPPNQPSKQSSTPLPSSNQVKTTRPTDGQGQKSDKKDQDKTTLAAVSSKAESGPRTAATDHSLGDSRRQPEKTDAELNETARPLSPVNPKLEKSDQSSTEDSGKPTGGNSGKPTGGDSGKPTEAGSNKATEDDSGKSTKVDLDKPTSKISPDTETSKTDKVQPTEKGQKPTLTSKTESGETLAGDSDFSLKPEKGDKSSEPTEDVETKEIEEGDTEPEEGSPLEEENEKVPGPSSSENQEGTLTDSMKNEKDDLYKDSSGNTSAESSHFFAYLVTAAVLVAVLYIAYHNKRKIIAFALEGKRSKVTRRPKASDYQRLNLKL
UniProt Q64433, whole entry: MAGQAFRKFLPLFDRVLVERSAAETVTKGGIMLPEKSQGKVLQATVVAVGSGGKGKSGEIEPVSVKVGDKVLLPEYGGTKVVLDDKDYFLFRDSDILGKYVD
UniProt Q60648: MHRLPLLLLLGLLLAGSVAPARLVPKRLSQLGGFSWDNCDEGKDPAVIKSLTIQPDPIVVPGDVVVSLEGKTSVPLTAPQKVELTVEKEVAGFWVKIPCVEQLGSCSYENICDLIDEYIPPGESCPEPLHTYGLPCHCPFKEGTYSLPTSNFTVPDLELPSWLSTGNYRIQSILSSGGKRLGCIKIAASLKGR
UniProt Q5U4C3: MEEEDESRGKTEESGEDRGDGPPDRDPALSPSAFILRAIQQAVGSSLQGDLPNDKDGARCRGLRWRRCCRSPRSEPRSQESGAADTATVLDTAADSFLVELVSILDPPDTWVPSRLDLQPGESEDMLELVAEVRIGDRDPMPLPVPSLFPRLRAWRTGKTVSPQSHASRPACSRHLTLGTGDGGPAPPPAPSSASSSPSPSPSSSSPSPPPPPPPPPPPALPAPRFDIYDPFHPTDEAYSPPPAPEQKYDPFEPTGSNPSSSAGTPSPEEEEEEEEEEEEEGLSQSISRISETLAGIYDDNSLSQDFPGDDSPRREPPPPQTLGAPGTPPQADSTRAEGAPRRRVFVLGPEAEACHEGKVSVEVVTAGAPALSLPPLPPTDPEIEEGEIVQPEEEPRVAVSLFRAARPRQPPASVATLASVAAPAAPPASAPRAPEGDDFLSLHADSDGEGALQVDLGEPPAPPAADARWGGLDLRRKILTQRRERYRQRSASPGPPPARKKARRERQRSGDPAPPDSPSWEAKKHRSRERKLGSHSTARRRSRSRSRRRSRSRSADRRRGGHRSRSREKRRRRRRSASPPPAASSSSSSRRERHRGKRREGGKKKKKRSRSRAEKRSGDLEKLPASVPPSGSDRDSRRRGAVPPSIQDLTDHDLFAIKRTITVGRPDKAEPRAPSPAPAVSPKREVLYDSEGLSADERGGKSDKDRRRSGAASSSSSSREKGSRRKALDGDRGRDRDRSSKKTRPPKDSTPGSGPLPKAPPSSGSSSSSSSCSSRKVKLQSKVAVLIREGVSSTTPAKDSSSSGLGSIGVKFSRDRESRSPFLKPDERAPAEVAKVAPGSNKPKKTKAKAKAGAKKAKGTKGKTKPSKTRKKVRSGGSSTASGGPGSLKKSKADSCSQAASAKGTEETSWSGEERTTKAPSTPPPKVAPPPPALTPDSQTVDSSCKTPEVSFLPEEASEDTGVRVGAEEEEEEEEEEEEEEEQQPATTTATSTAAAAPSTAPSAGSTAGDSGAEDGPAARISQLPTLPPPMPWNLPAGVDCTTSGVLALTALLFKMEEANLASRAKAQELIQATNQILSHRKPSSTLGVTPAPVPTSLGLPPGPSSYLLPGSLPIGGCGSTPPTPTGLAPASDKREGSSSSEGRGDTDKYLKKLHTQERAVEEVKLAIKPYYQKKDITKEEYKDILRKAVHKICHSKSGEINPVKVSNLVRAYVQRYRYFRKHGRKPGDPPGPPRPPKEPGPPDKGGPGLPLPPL

What follows are targets tested with CN[C@@H]1C[C@H]2O[C@@](C)([C@@H]1OC)n1c3ccccc3c3c4c(c5c6ccccc6n2c5c31)C(=O)NC4 [staurosporine] (assay: log2 fold change of pooled soluble protein (PISA), ligand vs vehicle (log2 ratio); higher = more thermally stabilized). Conditions: ligand concentration: 20 uM; assay format: PISA pool 52.9/55.5/58.6 C.

| Target | log2 fold change of pooled soluble protein |
| --- | --- |
| UniProt Q62277 | -0.242 |
| UniProt Q5XKN4 | 0.224 |
| UniProt Q61503 | 0.0139 |
| UniProt Q61730 | 0.143 |
| UniProt Q64261 | -0.172 |
| UniProt Q64458 | 0.0508 |
| UniProt Q60598 | -0.0766 |
| UniProt Q62189 | -0.0263 |
| UniProt Q63880 | -0.0353 |
| UniProt Q61033 | 0.0127 |
| UniProt Q69ZZ6 | -0.0759 |
| UniProt Q60739 | 0.0257 |
| UniProt Q5U458 | 0.0328 |
| UniProt Q61334 | -0.113 |
| UniProt Q61586 | -0.0204 |
| UniProt Q64446 | -0.0408 |
| UniProt Q61655 | 0.0503 |
| UniProt Q5SUF2 | 0.0102 |

Individual results from above.
UniProt Q5XKN4 | log2 fold change of pooled soluble protein: 0.224
UniProt Q64458 | log2 fold change of pooled soluble protein: 0.0508

Continuation.

| Target | log2 fold change of pooled soluble protein |
| --- | --- |
| UniProt Q5U3K5 | 0.112 |
| UniProt Q62426 | -0.0151 |
| UniProt Q61165 | -0.174 |
| UniProt Q64373 | 0.0213 |
| UniProt Q61183 | -0.108 |
| UniProt Q62313 | 0.106 |
| UniProt Q64133 | -0.00392 |
| UniProt Q64433 | -0.0634 |
| UniProt Q60648 | -0.031 |
| UniProt Q60692 | -0.053 |
| UniProt Q6A0A2 | -0.051 |
| UniProt Q69ZK6 | -0.0737 |
| UniProt Q61464 | -0.0603 |
| UniProt Q5RKZ7 | -0.0504 |
| UniProt Q62179 | -0.179 |
| UniProt Q61026 | 0.0455 |
| UniProt Q5U4C3 | -0.315 |
| UniProt Q5U5Q9 | -0.0814 |
